In publication PMC5467174:
Results are given in words; binding and its absence hold for the method and conditions named. Binding seen in cells or lysates may run through a third protein. Binding can be weak; no strength is given.

Chains of the proteins cited; added tags and fusions are not shown. Lines headed by an entry give the natural chain unless they say otherwise; changes in a name come on top.
UniProt Q9HCJ0: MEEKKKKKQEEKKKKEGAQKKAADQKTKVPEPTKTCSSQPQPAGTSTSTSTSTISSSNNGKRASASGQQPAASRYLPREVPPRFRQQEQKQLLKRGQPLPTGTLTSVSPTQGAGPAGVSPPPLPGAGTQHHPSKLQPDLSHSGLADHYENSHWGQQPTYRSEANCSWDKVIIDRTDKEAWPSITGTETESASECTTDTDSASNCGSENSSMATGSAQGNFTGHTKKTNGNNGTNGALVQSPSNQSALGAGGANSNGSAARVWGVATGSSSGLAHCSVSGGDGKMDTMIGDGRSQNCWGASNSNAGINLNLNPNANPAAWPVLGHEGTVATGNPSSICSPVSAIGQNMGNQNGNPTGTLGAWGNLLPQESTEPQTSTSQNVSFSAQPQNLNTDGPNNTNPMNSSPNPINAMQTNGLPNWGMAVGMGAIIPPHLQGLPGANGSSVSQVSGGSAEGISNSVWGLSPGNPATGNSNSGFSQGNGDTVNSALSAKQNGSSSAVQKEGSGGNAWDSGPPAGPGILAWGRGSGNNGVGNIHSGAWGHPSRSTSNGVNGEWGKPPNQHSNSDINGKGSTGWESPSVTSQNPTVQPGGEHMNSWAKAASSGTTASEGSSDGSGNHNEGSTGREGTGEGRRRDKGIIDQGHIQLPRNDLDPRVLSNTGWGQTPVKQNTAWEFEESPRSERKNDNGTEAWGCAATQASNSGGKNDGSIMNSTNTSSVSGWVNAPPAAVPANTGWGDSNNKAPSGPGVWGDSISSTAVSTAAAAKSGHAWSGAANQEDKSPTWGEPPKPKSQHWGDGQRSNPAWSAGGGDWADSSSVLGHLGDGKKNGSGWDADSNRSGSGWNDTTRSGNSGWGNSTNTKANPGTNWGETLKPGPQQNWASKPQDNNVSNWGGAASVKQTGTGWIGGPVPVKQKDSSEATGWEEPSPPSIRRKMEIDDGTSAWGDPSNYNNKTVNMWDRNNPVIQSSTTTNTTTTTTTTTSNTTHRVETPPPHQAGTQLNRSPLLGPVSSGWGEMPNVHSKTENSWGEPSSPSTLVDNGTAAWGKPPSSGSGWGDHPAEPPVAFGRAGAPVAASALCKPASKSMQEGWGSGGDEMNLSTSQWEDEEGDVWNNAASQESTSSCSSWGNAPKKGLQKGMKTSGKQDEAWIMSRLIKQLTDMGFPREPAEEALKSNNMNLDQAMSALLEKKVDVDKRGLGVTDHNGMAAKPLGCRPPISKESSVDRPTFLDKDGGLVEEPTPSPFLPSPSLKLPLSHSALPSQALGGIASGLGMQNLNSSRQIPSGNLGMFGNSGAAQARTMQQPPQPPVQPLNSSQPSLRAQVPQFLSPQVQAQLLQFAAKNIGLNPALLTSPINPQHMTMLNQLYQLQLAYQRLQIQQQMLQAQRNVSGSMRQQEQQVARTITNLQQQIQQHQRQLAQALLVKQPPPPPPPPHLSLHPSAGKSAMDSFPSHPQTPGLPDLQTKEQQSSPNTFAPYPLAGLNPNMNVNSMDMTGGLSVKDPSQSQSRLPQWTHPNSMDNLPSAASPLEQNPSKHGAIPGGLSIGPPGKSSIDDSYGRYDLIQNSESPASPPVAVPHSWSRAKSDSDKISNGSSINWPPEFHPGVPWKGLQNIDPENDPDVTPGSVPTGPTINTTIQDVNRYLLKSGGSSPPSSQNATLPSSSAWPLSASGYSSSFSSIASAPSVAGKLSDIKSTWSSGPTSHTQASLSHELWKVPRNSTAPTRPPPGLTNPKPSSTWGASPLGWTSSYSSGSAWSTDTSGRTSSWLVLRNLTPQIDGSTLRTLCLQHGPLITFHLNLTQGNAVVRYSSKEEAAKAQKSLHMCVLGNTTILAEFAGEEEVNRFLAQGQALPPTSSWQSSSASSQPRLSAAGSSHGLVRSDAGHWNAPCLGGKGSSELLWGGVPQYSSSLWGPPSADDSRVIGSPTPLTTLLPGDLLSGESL
UniProt Q9UKV8: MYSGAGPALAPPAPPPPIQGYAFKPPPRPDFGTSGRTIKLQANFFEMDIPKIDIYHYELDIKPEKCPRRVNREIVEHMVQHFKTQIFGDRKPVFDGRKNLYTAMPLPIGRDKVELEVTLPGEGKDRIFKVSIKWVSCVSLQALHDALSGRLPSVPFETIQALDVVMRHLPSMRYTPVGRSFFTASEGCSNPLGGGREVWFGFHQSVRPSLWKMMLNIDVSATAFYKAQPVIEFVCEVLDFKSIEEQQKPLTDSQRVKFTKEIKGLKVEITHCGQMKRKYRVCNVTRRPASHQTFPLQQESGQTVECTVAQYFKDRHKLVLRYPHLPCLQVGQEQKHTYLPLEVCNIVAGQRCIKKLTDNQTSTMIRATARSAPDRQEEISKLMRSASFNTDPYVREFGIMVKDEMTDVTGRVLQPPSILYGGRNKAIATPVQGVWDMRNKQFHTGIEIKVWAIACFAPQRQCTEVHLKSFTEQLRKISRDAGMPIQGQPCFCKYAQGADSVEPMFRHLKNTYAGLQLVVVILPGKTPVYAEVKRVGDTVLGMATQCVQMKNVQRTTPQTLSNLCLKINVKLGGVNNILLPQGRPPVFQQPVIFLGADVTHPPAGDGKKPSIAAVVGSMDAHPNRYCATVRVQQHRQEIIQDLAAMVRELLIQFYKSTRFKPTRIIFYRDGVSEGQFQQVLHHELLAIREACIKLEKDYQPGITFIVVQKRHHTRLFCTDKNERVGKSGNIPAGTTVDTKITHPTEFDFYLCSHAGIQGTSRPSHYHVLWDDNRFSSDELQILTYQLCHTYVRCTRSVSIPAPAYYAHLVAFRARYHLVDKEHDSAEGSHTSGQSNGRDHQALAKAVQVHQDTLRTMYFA

Biological target: Myc-tagged NBirA*-TNRC6C (UniProt Q9HCJ0)
Assay: co-IP; lysates of HeLa cells transfected with the Myc-NBirA* and FLAG-CBirA* fusions; anti-Myc or anti-FLAG antibody on magnetic beads, overnight at 4 °C, washes with 50 mM Tris pH 7.4, 300 mM NaCl, 1 mM MgCl2, 0.5% NP-40; western blot; untransfected cells as control

CBirA*-Ago2 (from UniProt Q9UKV8 1-859) was tested, and the binding was “binds”.
